Taken from: PubChem BioAssay AID1259308 (NCATS, 2017)
Aim: 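Genes whose loss raises luciferase production in HEK293 cells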 (primary screen). Cells: human HEK293 embryonic kidney cells stably expressing firefly luciferase (HEK-CMV-Luc2-Hygro). Reagents: single siRNA against human genes, 0.8 pmol siRNA per well. Timing: 72 h. Read-out: 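Luciferase light (ONE-Glo) measured on one replicate plate set and viability (CellTiter-Glo) on the other, scaled to a negative control siRNA, with robust z-scores and luciferase per cell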. Scale: total luciferase, z-score and total luciferase, % of control: higher = more reporter protein produced; luciferase per cell, z-score: higher = more reporter output per viable cell; viable cells, % of control: higher = more viable cells. Rule for the call: 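An siRNA counts as active if its total luciferase robust z-score exceeds 3; genes with two or more such siRNAs out of three were retested with fresh siRNAs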. Calls: active = raised luciferase; inactive = no rise.
Shown is a random part of about 59,000 reagents. Of all reagents, about 1,510 (2.6%) were called active. 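Calls use total luciferase alone and ignore viability, so some active siRNAs may act by altering cell number.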 A number with no mark means an inactive call. Reagents against one gene are numbered here.

total luciferase, z-score | total luciferase, % of control | luciferase per cell, z-score | viable cells, % of control | Target gene | reagent
0.6 | 93.8 | -0.246 | 112 | ZC3H12D | 1
0.397 | 89.8 | 0.572 | 86.3 | ZC3H12D | 2
0.0438 | 82.8 | -0.15 | 96.2 | ZC3H12D | 3
-0.78 | 66.4 | -0.031 | 74.8 | BUB1 | 1
0.778 | 97.4 | 0.456 | 96.5 | BUB1 | 2
0.741 | 96.6 | 0.0408 | 107 | BUB1 | 3
-0.0637 | 80.6 | 0.803 | 72.9 | PSIP1 | 1
0.503 | 91.9 | 0.864 | 81.8 | PSIP1 | 2
0.421 | 90.3 | 0.629 | 85.5 | PSIP1 | 3
0.808 | 98 | 0.854 | 87.4 | RHBDF2 | 1
-0.785 | 66.3 | -1 | 96.5 | RHBDF2 | 2
-1.86 | 44.8 | -1.43 | 73.1 | RHBDF2 | 3
-1.24 | 57.3 | -0.952 | 82.3 | CLK3 | 1
-1.45 | 53 | -1.19 | 80.9 | CLK3 | 2
-0.263 | 76.7 | -0.848 | 107 | CLK3 | 3
1.02 | 102 | 1.65 | 73.9 | ASB12 | 1
1.2 | 106 | 1.83 | 73 | ASB12 | 2
1.37 | 109 | 0.592 | 104 | ASB12 | 3
-0.986 | 62.3 | -0.256 | 74.5 | OR7D2 | 1
-0.394 | 74 | 0.0303 | 82.1 | OR7D2 | 2
1.02 | 102 | 2.02 | 67.1 | OR7D2 | 3
0.707 | 95.9 | 1.36 | 75 | UHRF1 | 1
0.594 | 93.7 | 0.73 | 86.4 | UHRF1 | 2
0.365 | 89.1 | 1.52 | 66.8 | UHRF1 | 3
-0.0523 | 80.8 | -0.479 | 102 | STEAP4 | 1
-0.439 | 73.2 | -0.693 | 98.1 | STEAP4 | 2
0.927 | 100 | 1.33 | 79 | STEAP4 | 3
1.24 | 106 | 0.455 | 106 | MRNIP | 1
1.3 | 108 | 0.428 | 108 | MRNIP | 2
-0.676 | 68.4 | -0.828 | 95.1 | MRNIP | 3
0.528 | 92.4 | -0.361 | 114 | PLD2 | 1
0.734 | 96.5 | 0.921 | 84.6 | PLD2 | 2
1.4 | 110 | 1.17 | 90.1 | PLD2 | 3
1.04 | 103 | 0.0941 | 112 | ARL9 | 1
-0.118 | 79.5 | 0.642 | 75.1 | ARL9 | 2
-0.014 | 81.6 | -0.398 | 101 | ARL9 | 3
-0.16 | 78.7 | 0.00379 | 87.8 | NSUN4 | 1
0.418 | 90.2 | 0.168 | 96.4 | NSUN4 | 2
0.138 | 84.6 | -0.281 | 102 | NSUN4 | 3

In a second layout: results already given
{"Target gene": "CLK3", "reagent": 2, "total luciferase, z-score": -1.45, "total luciferase, % of control": 53, "luciferase per cell, z-score": -1.19, "viable cells, % of control": 80.9}
{"Target gene": "CLK3", "reagent": 3, "total luciferase, z-score": -0.263, "total luciferase, % of control": 76.7, "luciferase per cell, z-score": -0.848, "viable cells, % of control": 107}
{"Target gene": "ASB12", "reagent": 1, "total luciferase, z-score": 1.02, "total luciferase, % of control": 102, "luciferase per cell, z-score": 1.65, "viable cells, % of control": 73.9}
{"Target gene": "ASB12", "reagent": 2, "total luciferase, z-score": 1.2, "total luciferase, % of control": 106, "luciferase per cell, z-score": 1.83, "viable cells, % of control": 73}
{"Target gene": "ASB12", "reagent": 3, "total luciferase, z-score": 1.37, "total luciferase, % of control": 109, "luciferase per cell, z-score": 0.592, "viable cells, % of control": 104}
{"Target gene": "OR7D2", "reagent": 1, "total luciferase, z-score": -0.986, "total luciferase, % of control": 62.3, "luciferase per cell, z-score": -0.256, "viable cells, % of control": 74.5}
